Experimental data reported in patent US8226965B2, “Methods of treating fungal, yeast and mold infections” (priority 2008, dated 2012).
At least one structure is not confirmed: it was looked up by name or label, or the drawing left a doubt.

Tested on: Trichophyton rubrum, Trichophyton mentagrophytes and Epidermophyton floccosum
Assay: Spontaneous resistance development, overall
Assay type: cell-based
Method: Phenotypically resistant isolates were tested for MICs and compared to parental MICs.

## CCC(C)n1ncn(-c2ccc(N3CCN(c4ccc(OCC5COC(Cn6cncn6)(c6ccc(Cl)cc6Cl)O5)cc4)CC3)cc2)c1=O (centres unmarked) [Itraconazole]
  stable resistance of recovered isolates: none of the isolates were stably resistant
Plates containing 2×, 4× or 8× the MIC
  frequency of phenotypic resistance: 1-5×10^−7
